Results: the supplement of paper PMC11264405

Assays:
Experiment in all cases: minimum inhibitory concentration
linezolid = compound: CC(=O)NC[C@H]1CN(c2ccc(N3CCOCC3)c(F)c2)C(=O)O1 [linezolid]
clindamycin = compound: CCC[C@@H]1C[C@@H](C(=O)N[C@@H]([C@H]2O[C@H](SC)[C@H](O)[C@@H](O)[C@H]2O)[C@H](C)Cl)N(C)C1 [clindamycin]
fidaxomicin = compound: CCc1c(Cl)c(O)c(Cl)c(O)c1C(=O)O[C@H]1[C@H](O)[C@H](OC)[C@H](OC/C2=C\C=C\C[C@H](O)/C(C)=C/[C@H](CC)[C@@H](O[C@@H]3OC(C)(C)[C@@H](OC(=O)C(C)C)[C@H](O)[C@@H]3O)/C(C)=C/C(C)=C/C[C@@H]([C@@H](C)O)OC2=O)O[C@@H]1C [fidaxomicin]
tigecycline = compound: CN(C)c1cc(NC(=O)CNC(C)(C)C)c(O)c2c1C[C@H]1C[C@H]3[C@H](N(C)C)C(O)=C(C(N)=O)C(=O)[C@@]3(O)C(O)=C1C2=O [tigecycline]
vancomycin = compound: CN[C@H](CC(C)C)C(=O)N[C@H]1C(=O)N[C@@H](CC(N)=O)C(=O)N[C@H]2C(=O)N[C@H]3C(=O)N[C@H](C(=O)N[C@H](C(=O)O)c4cc(O)cc(O)c4-c4cc3ccc4O)[C@H](O)c3ccc(c(Cl)c3)Oc3cc2cc(c3O[C@@H]2O[C@H](CO)[C@@H](O)[C@H](O)[C@H]2O[C@H]2C[C@](C)(N)[C@H](O)[C@H](C)O2)Oc2ccc(cc2Cl)[C@H]1O [vancomycin]
rifampicin = compound: CO[C@H]1/C=C/O[C@@]2(C)Oc3c(C)c(O)c4c(O)c(c(/C=N/N5CCN(C)CC5)c(O)c4c3C2=O)NC(=O)/C(C)=C\C=C\[C@H](C)[C@H](O)[C@@H](C)[C@@H](O)[C@@H](C)[C@H](OC(C)=O)[C@@H]1C [rifampicin]
imipenem = compound: C[C@@H](O)[C@H]1C(=O)N2C(C(=O)O)=C(SCCNC=N)C[C@H]12 [imipenem]
meropenem = compound: C[C@@H](O)[C@H]1C(=O)N2C(C(=O)O)=C(S[C@@H]3CN[C@H](C(=O)N(C)C)C3)[C@H](C)[C@H]12 [meropenem]
metronidazole = compound: Cc1ncc([N+](=O)[O-])n1CCO [metronidazole]

Test System	minimum inhibitory concentration (linezolid) [µg/mL]	minimum inhibitory concentration (clindamycin) [µg/mL]	minimum inhibitory concentration (fidaxomicin) [µg/mL]	minimum inhibitory concentration (tigecycline) [µg/mL]	minimum inhibitory concentration (vancomycin) [µg/mL]	minimum inhibitory concentration (rifampicin) [µg/mL]	minimum inhibitory concentration (imipenem) [µg/mL]	minimum inhibitory concentration (meropenem) [µg/mL]	minimum inhibitory concentration (metronidazole) [µg/mL]
Clostridioides difficile PCR ribotype 002 isolate #21 (European region: West, country: Netherlands, isolate source: Human, ribotype: 002)	2	16	0.03	< 0.03	1	< 0.001	0.5	4	0.25
Clostridioides difficile PCR ribotype 002 isolate #22 (European region: South, country: Italy, isolate source: Human, ribotype: 002)	2	8	0.03	0.06	0.5	< 0.001	1	4	< 0.125
Clostridioides difficile PCR ribotype 002 isolate #282 (European region: South, country: Spain, isolate source: Animal, ribotype: 002)	2	> 128	0.008	< 0.03	1	< 0.001	4	2	0.25
Clostridioides difficile PCR ribotype 003 isolate #23 (European region: North, country: UK, isolate source: Human, ribotype: 003)	2	4	0.03	0.06	1	< 0.001	4	4	< 0.125
Clostridioides difficile PCR ribotype 003 isolate #24 (European region: North, country: UK, isolate source: Human, ribotype: 003)	2	4	0.03	0.06	0.5	< 0.001	4	2	< 0.125
Clostridioides difficile PCR ribotype 003 isolate #25 (European region: North, country: UK, isolate source: Human, ribotype: 003)	2	8	0.03	0.06	1	< 0.001	4	4	< 0.125
Clostridioides difficile PCR ribotype 003 isolate #26 (European region: South, country: Spain, isolate source: Human, ribotype: 003)	2	4	0.06	0.06	1	0.002	4	4	< 0.125
Clostridioides difficile PCR ribotype 003 isolate #27 (European region: North, country: UK, isolate source: Human, ribotype: 003)	2	8	0.06	< 0.03	0.5	< 0.001	4	2	0.5
Clostridioides difficile PCR ribotype 003 isolate #29 (European region: North, country: UK, isolate source: Human, ribotype: 003)	2	2	0.03	< 0.03	0.5	< 0.001	2	4	< 0.125
Clostridioides difficile PCR ribotype 003 isolate #284 (European region: West, country: France, isolate source: Animal, ribotype: 003)	2	16	0.03	< 0.03	0.5	< 0.001	2	4	< 0.125
Clostridioides difficile PCR ribotype 005 isolate #30 (European region: North, country: UK, isolate source: Human, ribotype: 005)	2	0.25	0.03	< 0.03	1	< 0.001	4	2	0.25
Clostridioides difficile PCR ribotype 005 isolate #31 (European region: North, country: UK, isolate source: Human, ribotype: 005)	2	4	0.03	0.06	0.25	< 0.001	2	2	0.25
Clostridioides difficile PCR ribotype 005 isolate #32 (European region: South, country: Italy, isolate source: Human, ribotype: 005)	2	16	0.03	0.06	< 0.125	< 0.001	2	2	1
Clostridioides difficile PCR ribotype 005 isolate #33 (European region: West, country: France, isolate source: Human, ribotype: 005)	2	16	0.015	< 0.03	0.5	< 0.001	2	4	0.25
Clostridioides difficile PCR ribotype 005 isolate #34 (European region: North, country: UK, isolate source: Human, ribotype: 005)	2	16	0.03	< 0.03	0.5	< 0.001	2	4	< 0.125
Clostridioides difficile PCR ribotype 005 isolate #36 (European region: South, country: Spain, isolate source: Human, ribotype: 005)	2	16	0.03	0.06	0.5	0.002	2	4	< 0.125
Clostridioides difficile PCR ribotype 005 isolate #285 (European region: West, country: Austria, isolate source: Animal, ribotype: 005)	2	8	0.03	0.06	1	< 0.001	2	4	0.25
Clostridioides difficile PCR ribotype 005 isolate #286 (European region: South, country: Spain, isolate source: Animal, ribotype: 005)	2	> 128	0.03	< 0.03	1	< 0.001	2	4	< 0.125
Clostridioides difficile PCR ribotype 005 isolate #287 (European region: West, country: Austria, isolate source: Animal, ribotype: 005)	2	8	0.015	0.06	1	< 0.001	2	4	< 0.125
Clostridioides difficile PCR ribotype 005 isolate #288 (European region: West, country: France, isolate source: Animal, ribotype: 005)	2	2	0.015	< 0.03	1	< 0.001	2	4	0.25
Clostridioides difficile PCR ribotype 005 isolate #289 (European region: West, country: Netherlands, isolate source: Animal, ribotype: 005)	2	8	0.015	< 0.03	1	< 0.001	0.5	4	< 0.125
Clostridioides difficile PCR ribotype 005 isolate #290 (European region: West, country: France, isolate source: Animal, ribotype: 005)	2	8	0.015	< 0.03	1	< 0.001	1	4	< 0.125
Clostridioides difficile PCR ribotype 005 isolate #291 (European region: West, country: France, isolate source: Animal, ribotype: 005)	2	16	0.015	< 0.03	1	< 0.001	2	4	0.25

Just minimum inhibitory concentration (metronidazole) [µg/mL] and minimum inhibitory concentration (vancomycin) [µg/mL] (2 entries from above):
Test System	minimum inhibitory concentration (metronidazole) [µg/mL]	minimum inhibitory concentration (vancomycin) [µg/mL]
Clostridioides difficile PCR ribotype 005 isolate #285 (European region: West, country: Austria, isolate source: Animal, ribotype: 005)	0.25	1
Clostridioides difficile PCR ribotype 005 isolate #286 (European region: South, country: Spain, isolate source: Animal, ribotype: 005)	< 0.125	1
